This passage reports AC50 results from PubChem BioAssay AID493014 (National Center for Advancing Translational Sciences (NCATS), 2011).

Some of the results follow. Further columns of the screen follow, without active or inactive calls. The list favours compounds with an active or inconclusive main result. Potencies come from curve fits of mixed quality, noted in brackets.

A short description of this test: qHTS Assay to Find Inhibitors of Chronic Active B-Cell Receptor Signaling. The note with it: ABC-DLBCL IkBa-CBG/CBR reporter, luminescence ratio (green luciferase fused to IkBa over red control in TMD8 lymphoma cells), 4 h. The gist of the method: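 TMD8 human ABC-DLBCL cells with doxycycline-inducible IκBα–green luciferase fusion and unfused red luciferase, in 0.5% FBS medium; compounds up to 46 uM, 4 h at 37C. Green/red luminescence ratio, filter-overlap corrected, fitted to concentration-response curves.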
On the technique in general: In qHTS, concentration-response curves come from the screen itself.

Where [1] appears, read: measured here: CBR red luminescence, cell number.
The mark [2] stands for this setting: measured here: IkBa-CBG green luminescence.

For the compound `CCCc1nnc(NC(=O)c2cc3ccccc3o2)s1`, the AC50 (in general, the concentration giving half of the maximal activity seen) under setting [1] was 0.562 µM [falling, full curve, poor fit].
On to `Cc1cc(C)[n+]2n1C(=O)C(c1ccccc1)=C2[O-]`, for which the concentration at half-maximal activity (AC50) was 35.5 µM [falling, partial curve, poor fit] under setting [1] and 17.8 µM [rising, partial curve, poor fit] under setting [2].
Turning to `Cc1cccc(-n2ncc3c(NC4CCCC4)ncnc32)c1`, the half-maximal activity concentration (AC50) under setting [1] was 3.16 µM [falling, partial curve, poor fit].
Turning to `CC(C)N(C(=O)Nc1ccc2nsnc2c1)C(C)C`, the AC50 under setting [1] was 6.31 µM [falling, full curve, poor fit].
As for `Cc1ccccc1CS(=O)(=O)c1ncc(Cl)c(C(=O)Nc2ccc(F)cc2)n1`, the AC50 under setting [1] was 7.08 µM [falling, full curve] and the AC50 under setting [2] was 5.62 µM [rising, full curve].
Take `N#CC1=C(N)N(c2ccccc2)C(c2cccc([N+](=O)[O-])c2)C1(C#N)C#N` (configuration not stated): the AC50 under setting [1] is 3.55 µM [rising, full curve, poor fit].
For `O=C(NCCN1CCOCC1)c1csc2c1CCCC2`, the AC50 under setting [1] was 29.1 µM [falling, single point] and the AC50 under setting [2] is 16.4 µM [rising, partial curve, poor fit].
Consider `CC(Sc1ccccc1)C(=O)N1CCN(S(=O)(=O)c2ccccc2)CC1` (configuration not stated), for which the AC50 under setting [1] is 22.4 µM [falling, single point].
The same measure, in the same setting: to `O=C(Cn1cc([N+](=O)[O-])cn1)NCCc1nc2ccccc2[nH]1` belongs 3.55 µM [rising, full curve].
Same read-out and setting: the same measure for `C=CCc1cccc(/C=N/NC(=O)c2ccccc2OC)c1O`: 4.47 µM [falling, full curve].
Consider `CCc1ccc(Nc2nc(N)nc(CSc3nc4ccccc4s3)n2)cc1`, for which the AC50 under setting [2] is 4.61 µM [falling, partial curve, poor fit].
As for `Cc1ccc(CC(=O)N2CC(C)OC(C)C2)cc1` (configuration not stated), the AC50 under setting [1] was 2.82 µM [falling, partial curve, poor fit].
On the same count and under the same terms, to `COc1ccc(C(=O)/C=C/c2ccsc2)cc1CSCC(=O)O` belongs 14.1 µM [falling, partial curve]; to `Nc1ccc(CCc2nc3ccccc3o2)cc1`, 29.1 µM [falling, single point]; to `C=Cc1c(C)c2cc3[nH]c(cc4nc(cc5nc(cc1[nH]2)C(C)=C5CCC(=O)O)C(CCC(=O)O)=C4C)c(C)c3C=C`, 16.4 µM [rising, partial curve, poor fit].
Same read-out and setting: to `COCCC(=O)N1CCC(Oc2ccc(C(=O)NCCc3cn[nH]c3)cc2)CC1` belongs 0.126 µM [rising, full curve]; to `CC(C)(C)C1CCc2c(sc3nc(SCC(=O)O)nc(N)c23)C1` (configuration not stated), 0.316 µM [falling, full curve].
The same measure, in the same setting: to `Cc1[nH]c(=O)[nH]c(=O)c1S(=O)(=O)N1CCCC(C(=O)NCCc2ccc(Cl)cc2)C1` (configuration not stated) belongs 0.00461 µM [falling, full curve, poor fit].
As to `Cc1cccc(N2CCN(C(=O)CCn3c(=O)[nH]c4ccccc4c3=O)CC2)c1C`, the AC50 under setting [1] is 5.62 µM [rising, full curve, poor fit].
Still for that read-out and setting: the same measure for `Cn1c(=O)c2c(nc(CN3CCN(C(=O)c4ccco4)CC3)n2CCCc2ccccc2)n(C)c1=O`: 1.84 µM [rising, full curve, poor fit].
With `O=C1OCC2=C1C(c1ccc(F)cc1)c1cc3c(cc1N2)OCCO3` (configuration not stated), the AC50 was 0.282 µM [rising, full curve, poor fit] under setting [1] and 0.282 µM [falling, full curve, poor fit] under setting [2].
In the case of `Cc1cc(C)n2nc(C(=O)NCCc3ccccc3)nc2n1`, under setting [1], the AC50 was 14.6 µM [falling, single point].
In the case of `CC(=O)c1c(C)[nH]c(C(=O)COC(=O)Cc2ccccc2F)c1C`, the AC50 under setting [1] was 13 µM [rising, partial curve, poor fit].
Regarding `Oc1ccc(/C=N/Nc2nc(N3CCCCCC3)nc(N3CCCCCC3)n2)c(O)c1`, under setting [1], the AC50 was 35.5 µM [falling, single point].
For the compound `NC1=NC[C@@H](Cc2ccc(O)cc2)N1CCc1cccc2ccccc12`, the AC50 under setting [1] is 35.5 µM [falling, single point].
On the same count and under the same terms, to `CC(C)[n+]1ccn(C2=C([O-])c3ccccc3C(=O)/C2=N\S(=O)(=O)c2ccccc2)c1` belongs 35.5 µM [falling, single point].
On to `CN(Cc1ccccc1)C(=O)c1[nH]cnc1C(=O)Nc1nccs1`, for which the AC50 is, setting by setting: under setting [1], 7.31 µM [falling, partial curve, poor fit]; under setting [2], 11.6 µM [rising, partial curve, poor fit].
`CCC(=O)Oc1ccc2c(C)cc(=O)oc2c1C`: the AC50 under setting [1] is 2.06 µM [rising, single point].
For `Cc1cccnc1NC1OC(=O)c2ccccc21` (configuration not stated), the AC50 under setting [1] was 8.2 µM [falling, partial curve, poor fit].
Same read-out and setting: to `CC(=O)c1ccc(NC(=O)c2cc3nc4c(c(C(F)(F)F)n3n2)CCCC4)cc1` belongs 25.9 µM [rising, single point].
On to `Cc1ccc(OCCC(=O)OCC(=O)C(C)(C)C)cc1`, for which the AC50 under setting [1] was 23.1 µM [rising, partial curve, poor fit].
Turning to `COc1cccc(C2=NOC(C(=O)NCc3ccccc3)C2)c1` (configuration not stated), the AC50 is 22.4 µM [rising, single point] under setting [1] and 35.5 µM [falling, single point] under setting [2].
As for `COC(=O)c1ccc2c(=O)n(CCCCCC(=O)N3CCN(c4ccc(OC)cc4)CC3)c(=O)[nH]c2c1`, the AC50 under setting [1] is 3.16 µM [falling, full curve, poor fit].
Turning to `COc1cccc(N(C(=O)c2nc3nccc(C)n3n2)c2nc3ccccc3s2)c1`, the AC50 under setting [1] was 0.326 µM [rising, partial curve, poor fit].
Turning to `COc1ccc(/C=C2\SC(=S)N(CCCC(=O)Nc3cc(C)on3)C2=O)cc1OC`, the AC50 under setting [1] was 4.47 µM [falling, partial curve].
On the same count and under the same terms, to `Cc1c(O)ccc(-c2[nH]ncc2-c2nc3ccccc3s2)c1O` belongs 2.59 µM [falling, partial curve, poor fit].
Still for that read-out and setting: the same measure for `Cc1c(CN2CCC(C)CC2)c(=O)n(-c2ccccc2)n1C`: 22.4 µM [rising, partial curve, poor fit]; for `Cc1noc(C)c1COc1ccc(C(=O)OCC(=O)Nc2ccc3ccccc3c2)cc1`: 29.1 µM [falling, single point].
On the same count and under the same terms, to `Cc1[nH]c2ccccc2c1/C=C(\C#N)S(=O)(=O)c1ccccc1` belongs 1.84 µM [falling, full curve, poor fit]; to `CCOC(=O)C1CCCCN1C(=O)c1oc2c(Cl)cc(C)cc2c1C` (configuration not stated), 11.2 µM [rising, partial curve].
Regarding `N/C(=N\OC(=O)COc1ccc2ccccc2c1Br)c1ccccn1`, under setting [1], the AC50 was 25.1 µM [falling, single point].
The same measure, in the same setting: to `Cc1cc(C(=O)N2CCCCCC2)cs1` belongs 8.2 µM [rising, partial curve, poor fit]; to `COC(=O)c1[nH]c2cc(OC)c(OC)cc2c1NC(=O)Oc1ccccc1`, 11.6 µM [rising, partial curve, poor fit]; to `C/C=C(/C)C(=O)O[C@@H]1c2cc3c(c4c2[C@@]2(CO4)C(=O)C(OC)=C(OC)C=C2C[C@@H](C)[C@H]1C)OCO3`, 2.82 µM [rising, partial curve, poor fit].
Same read-out and setting: to `CCOC(=O)Cc1nnc(NC(=O)C2CCCCC2)s1` belongs 7.94 µM [rising, partial curve]; to `CCn1ccc(C(=O)Nc2ccsc2C(=O)OC)n1`, 3.98 µM [falling, partial curve, poor fit].
For the compound `O=C1[C@@H]2Cc3ccccc3CN2C(=O)N1c1cccc(F)c1`, under setting [1], the AC50 was 3.66 µM [rising, single point].
For the compound `CCCn1ccc2c(OCC(=O)NCc3ccccc3Cl)cccc2c1=O`, the AC50 under setting [1] was 10 µM [falling, partial curve, poor fit].
Still for that read-out and setting: to `O=C(CSc1nc2ccccc2s1)CSc1nc2ccccc2s1` belongs 0.184 µM [falling, full curve, poor fit]; to `CN(CC1CCCO1)S(=O)(=O)c1ccc(C(=O)Nc2nc3cc4c(cc3s2)OCO4)cc1` (configuration not stated), 0.316 µM [falling, full curve, poor fit]; to `CCS(=O)(=O)c1nc(S(=O)(=O)c2ccc(Cl)cc2)c(NCc2ccccn2)s1`, 35.5 µM [falling, single point].
As to `Nc1c(Cl)ncnc1N/N=C/c1ccc2ccccc2n1`, the AC50 under setting [1] was 29.1 µM [falling, single point].
For the compound `Cc1nnc2nc(-c3ccccc3)nc(-c3ccccc3)n12`, the AC50 runs as follows: under setting [1], 35.5 µM [falling, single point]; under setting [2], 3.55 µM [rising, full curve, poor fit].
Take `Cc1ccc2nc(SCC(=O)Nc3ccccc3N3CCOCC3)c(C#N)cc2c1`: the AC50 under setting [1] was 0.517 µM [falling, partial curve, poor fit].
Same read-out and setting: to `CCc1cc(C(=O)Nc2ccc(C)cc2Br)cs1` belongs 0.731 µM [rising, full curve, poor fit]; to `O=[N+]([O-])c1cc(C(F)(F)F)cc([N+](=O)[O-])c1NCCNC(=S)Nc1ccc(Cl)c(Cl)c1`, 35.5 µM [falling, single point].
Take `COc1cccc(CNC(=O)C2=Cc3cccc(OC)c3OC2)c1`: the AC50 under setting [1] is 10 µM [falling, partial curve, poor fit].
Same read-out and setting: to `CC(=O)c1cccc(NC(c2ccc(F)cc2)c2nnc(-c3ccccc3)o2)c1` (configuration not stated) belongs 35.5 µM [falling, single point]; to `Nc1cc(C(=O)OCC(=O)N2CCOCC2)ccc1Cl`, 7.94 µM [falling, partial curve].
`c1ccc(-c2csc(N3CCOCC3)n2)cc1`: the AC50 under setting [2] is 6.51 µM [rising, partial curve, poor fit].
